# Measurements reported in PubChem BioAssay AID1259254 (NCATS, 2017)
# Assay: 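Gene knock-downs that lead to re-replication, shown by excess G2 DNA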 (primary screen)
# Cell system: human HCT116 colorectal cancer cells
# Reagent: single siRNA against human genes
# Duration: 3 days
# Detection: 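Nuclei stained with Hoechst and imaged; cell-cycle phase assigned by DNA content; G2 share scaled per plate, non-targeting siRNA 0%, GMNN siRNA 100%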
# Direction: G2 robust z-score and G2 cells, % of GMNN control: higher = more G2 cells, more excess DNA replication
# Call rule: 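Active siRNAs have a G2 robust z of 5 or more median absolute deviations over the median, which in these data means about 38% or higher of GMNN control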
# The whole screen tested about 59,000 reagents; below is a part drawn at random. Of all reagents, about 1,550 (2.6%) were called active. 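G2 share is only a proxy for re-replication; each gene was hit by three separate siRNAs, and active genes were retested.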 The numbers tell different reagents against one gene apart. Not all columns of the deposit are shown. No sequences are given here. The record does not give: the amount of reagent.
gene knocked down,siRNA no.,G2 robust z-score,"G2 cells, % of GMNN control",outcome
TUBBP2,1,-0.014,2.87,inactive
TUBBP2,2,2.74,22.2,inactive
TUBBP2,3,2.19,18.4,inactive
MGAT3,1,-0.294,0.901,inactive
MGAT3,2,-1,-4.1,inactive
MGAT3,3,2.09,17.7,inactive
COL6A2,1,-0.44,-0.132,inactive
COL6A2,2,-0.303,0.836,inactive
COL6A2,3,0.0753,3.5,inactive
HEPHL1,1,-0.338,0.589,inactive
HEPHL1,2,-0.593,-1.2,inactive
HEPHL1,3,0.303,5.1,inactive
SCN1B,1,-0.437,-0.111,inactive
SCN1B,2,0.00647,3.01,inactive
SCN1B,3,1.1,10.7,inactive
LY86,1,-0.307,0.805,inactive
LY86,2,-0.789,-2.58,inactive
LY86,3,0.132,3.89,inactive
CDC25C,1,0.295,5.04,inactive
CDC25C,2,0.264,4.83,inactive
CDC25C,3,-0.762,-2.39,inactive
ARHGAP4,1,0.854,8.97,inactive
ARHGAP4,2,4.5,34.6,inactive
ARHGAP4,3,-0.695,-1.92,inactive
KCNN4,1,-0.692,-1.9,inactive
KCNN4,2,0.652,7.56,inactive
KCNN4,3,1.74,15.2,inactive
MTCP1,1,1.49,13.4,inactive
MTCP1,2,0.215,4.48,inactive
MTCP1,3,3.92,30.6,inactive
MTARC2,1,-0.0043,2.94,inactive
MTARC2,2,0.238,4.65,inactive
MTARC2,3,0.915,9.41,inactive
ZGRF1,1,-0.255,1.18,inactive
ZGRF1,2,0.298,5.07,inactive
ZGRF1,3,1.28,12,inactive
ZGRF1,4,-1.32,-6.34,inactive
ZGRF1,5,-1.06,-4.46,inactive
ZGRF1,6,-0.17,1.77,inactive
C22orf23,1,-0.398,0.167,inactive
C22orf23,2,-0.787,-2.57,inactive
C22orf23,3,1.3,12.1,inactive
GLOD5,1,-0.532,-0.777,inactive
GLOD5,2,-0.501,-0.559,inactive
GLOD5,3,-0.746,-2.28,inactive
KRT71,1,-0.937,-3.62,inactive
KRT71,2,-0.15,1.91,inactive
KRT71,3,-1.01,-4.12,inactive
RAB36,1,1.32,12.2,inactive
RAB36,2,-0.0651,2.51,inactive
RAB36,3,4.98,38,inactive
NFATC4,1,-0.254,1.18,inactive
NFATC4,2,-0.843,-2.97,inactive
NFATC4,3,-0.0455,2.65,inactive
OR51B4,1,0.599,7.19,inactive
OR51B4,2,1.75,15.3,inactive
OR51B4,3,0.523,6.65,inactive
XAGE3,1,-0.333,0.627,inactive
XAGE3,2,-0.0543,2.59,inactive
XAGE3,3,0.166,4.13,inactive
GOLGA8B,1,0.565,6.94,inactive
GOLGA8B,2,-0.082,2.39,inactive
GOLGA8B,3,-0.515,-0.656,inactive
LINC00615,1,0.423,5.95,inactive
LINC00615,2,1.25,11.8,inactive
LINC00615,3,-1.09,-4.67,inactive
MIX23P3,1,-0.814,-2.76,inactive
MIX23P3,2,-0.945,-3.68,inactive
MIX23P3,3,-0.112,2.18,inactive
